According to PMC7529891:
These are yes or no findings as the source states them, for the method shown. In cells and extracts the contact can be indirect. Some entries that bind do so weakly or less than the wild type.

Amino acid sequences for entries named in this document (tags omitted).
UniProt Q96AC1: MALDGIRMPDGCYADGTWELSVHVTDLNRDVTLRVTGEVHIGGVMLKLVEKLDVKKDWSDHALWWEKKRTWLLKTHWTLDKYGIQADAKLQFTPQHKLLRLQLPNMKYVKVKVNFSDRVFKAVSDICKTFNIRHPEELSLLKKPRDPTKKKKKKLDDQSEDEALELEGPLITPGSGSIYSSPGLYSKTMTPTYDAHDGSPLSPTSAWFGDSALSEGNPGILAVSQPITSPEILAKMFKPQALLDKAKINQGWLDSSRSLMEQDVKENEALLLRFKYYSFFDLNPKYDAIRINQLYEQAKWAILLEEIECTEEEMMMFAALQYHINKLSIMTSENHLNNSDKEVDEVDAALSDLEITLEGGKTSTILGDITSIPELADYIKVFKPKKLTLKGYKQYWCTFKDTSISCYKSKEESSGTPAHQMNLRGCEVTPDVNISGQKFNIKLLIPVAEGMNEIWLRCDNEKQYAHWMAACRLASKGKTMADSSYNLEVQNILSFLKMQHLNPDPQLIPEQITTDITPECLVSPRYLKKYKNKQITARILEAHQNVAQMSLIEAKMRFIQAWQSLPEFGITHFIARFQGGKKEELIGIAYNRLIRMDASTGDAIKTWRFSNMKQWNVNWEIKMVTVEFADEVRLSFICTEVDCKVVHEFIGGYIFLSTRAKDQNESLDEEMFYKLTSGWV

Columns and labels:
[1] = target: kindlin-2 (human (endogenous in A549)) (UniProt Q96AC1); assay: proximity ligation; Duolink PLA on fixed, permeabilised A549 cells with rabbit anti-PYCR1 and mouse anti-kindlin-2 (clone 3A3.5); wild type cells, PINCH-1 KO (inhibited), 3xFLAG-PINCH-1 re-expression (restored), DRP1 siRNA (increased), 3xFLAG-MFN2 overexpression (increased)
[2] = target: kindlin-2 (human (endogenous in A549)) (UniProt Q96AC1); assay: co-IP; A549 cell lysates (0.5-2 mg protein), IP overnight at 4 °C with mouse anti-kindlin-2 (clone 3A3.5), Protein A/G agarose, blot for PYCR1; wild type cells, PINCH-1 KO (reduced), 3xFLAG-PINCH-1 re-expression (restored), DRP1 siRNA in PINCH-1 KO cells (increased)

binding [1]: binds
binding [2]: binds
B1: pyrroline-5-carboxylate reductase 1 (enzyme, UniProt P32322 1-319)
chain: MSVGFIGAGQLAFALAKGFTAAGVLAAHKIMASSPDMDLATVSALRKMGVKLTPHNKETVQHSDVLFLAVKPHIIPFILDEIGADIEDRHIVVSCAAGVTISSIEKKLSAFRPAPRVIRCMTNTPVVVREGATVYATGTHAQVEDGRLMEQLLSSVGFCTEVEEDLIDAVTGLSGSGPAYAFTALDALADGGVKMGLPRRLAVRLGAQALLGAAKMLLHSEQHPGQLKDNVSSPGGATIHALHVLESGGFRSLLINAVEASCIRTRELQSMADQEQVSPAAIKKTILDKVKLDSPAGTALSPSGHTKLLPRSLAPAGKD
